Source: the supplement of paper PMC4371806
The full ranking holds about 2,300 compounds; the median of “plate-normalized OD600 growth (mean of duplicates)” is about 0.29, and the lowest 2% start at about 0.22. The list shows a part of the results.

System: Escherichia coli BW25113
Test: plate-normalized OD600 growth (mean of duplicates) (OD600 (normalized)); higher = more growth (less inhibition)
Conditions: 10 µM
Procedure: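 E. coli BW25113 in LB (100 µl, 96-well, no shaking) was exposed to 10 µM of each compound from a ~30,000-member library and grown at 37°C for 24 h or 15°C for 48 h, in duplicate. Growth was read as OD600 and the duplicate ODs were normalized across screening plates to correct plate-to-plate variation. Hits were >3σ below the mean OD600 at 15°C and <2σ below the mean at 37°C.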

SMILES | plate-normalized OD600 growth (temperature: 15°C, 48 h) | plate-normalized OD600 growth (temperature: 37°C, 24 h)
CCOC(=O)c1c(CN2CCN(c3ccccc3)CC2)n(-c2ccccc2)c2ccc(O)cc12 | 0.228 | 0.627
N#Cc1cc2c(nc1SCc1ccccc1F)CCC2 | 0.24 | 0.585
COc1cccc(NC(=O)C(C(F)(F)F)C(F)(F)F)c1 | 0.257 | 0.63
N#Cc1ccc([N+](=O)[O-])s1 | 0.248 | 0.627
COc1ccc(-c2cc(C(F)(F)F)n3ncc(C(=O)NCC45CC6CC(CC(C6)C4)C5)c3n2)cc1OC | 0.274 | 0.635
O=[N+]([O-])c1cc(C(F)(F)F)ccc1S(=O)(=O)c1ccc(Cl)cc1 | 0.238 | 0.619
CCn1c(=N)n(CC(=O)c2cccs2)c2ccccc21 | 0.221 | 0.595
Cc1ccc(C(=O)c2ccccc2[N+](=O)[O-])cc1 | 0.243 | 0.613
CCN(CC)Cc1cc(NC2=NS(=O)(=O)c3ccccc32)ccc1OC(=O)c1ccccc1 | 0.253 | 0.64
O=C(Nc1ccccn1)c1ccc(Br)o1 | 0.23 | 0.631
CCCCOc1ccc(S(=O)(=O)Oc2c(Cl)cc(Cl)c3cccnc23)cc1 | 0.261 | 0.631
COc1c(C(C)=O)ccc2ccccc12 | 0.239 | 0.622
CCC1(O)C(=O)N(C)c2cnc(Nc3ccc(C(=O)NC4CCC(N5CCN(CC6CC6)CC5)CC4)cc3OC)nc2N1C(C)C (centres undefined) | 0.23 | 0.612
CC(C)(C)c1ccc(C(CC(=O)O)NC(=O)c2ccc(F)cc2)cc1 (centres undefined) | 0.239 | 0.617
NC(=O)c1c(NC(=O)c2cc3ccccc3o2)sc2c1CCCCC2 | 0.251 | 0.653
CCOC(=O)c1[nH]c(C)c(CNCc2ccccc2)c1C | 0.238 | 0.627
COc1ccccc1NC(=S)NCCC(=O)O | 0.247 | 0.616
Cc1sc(NC(=O)c2ccncc2)nc1-c1ccc(Cl)cc1 | 0.226 | 0.606
O=[N+]([O-])c1ccc(N2CCCCC2)nc1N1CCCCC1 | 0.257 | 0.607
COc1ccccc1N1CCN(S(=O)(=O)c2ccc(C(F)(F)F)cc2)CC1 | 0.26 | 0.603
O=C1OC(=O)C2C3C=CC(C3=C(c3ccccc3)c3ccccc3)C12 (centres undefined) | 0.263 | 0.635

SMILES | plate-normalized OD600 growth (temperature: 15°C, 48 h) | plate-normalized OD600 growth (temperature: 37°C, 24 h)
COc1ccc(C2=C(C(C)=O)C(C)=NC(=S)C2C#N)cc1 (centres undefined) | 0.252 | 0.607
O=C(CNC(=O)C(c1ccccc1)c1ccccc1)N/N=C/c1ccccc1O | 0.233 | 0.598
N#C/C(NCc1cccs1)=C(\C#N)NCc1c(F)cccc1Cl | 0.228 | 0.615
O=C(Nc1ccc(S(=O)(=O)Nc2cccc(Cl)c2Cl)cc1)C1COc2ccccc2O1 (centres undefined) | 0.262 | 0.62
CC(C)CSc1ncnc2scc(-c3ccccc3)c12 | 0.235 | 0.631
O=c1/c(=C/c2cc(Br)c(O)c(Br)c2)sc2nc3ccccc3n12 | 0.255 | 0.655
CCOC(=O)c1ccc(-n2sccc2=O)cc1 | 0.219 | 0.645
C#CC1(O)CCN(C(C)(C)C)CC1C (centres undefined) | 0.24 | 0.621
COc1ccc(C2C(C(=O)/C=C/c3ccccc3)=C(O)C(=O)N2CCO)cc1 (centres undefined) | 0.227 | 0.597
COc1ccc2c(c1OC)CN(C)CCc1cc3c(cc1C(O)C2)OCO3 (centres undefined) | 0.242 | 0.617
O=C1CC(Nc2ccccc2)C=C1Nc1ccccc1 (centres undefined) | 0.242 | 0.629
Clc1cccc(Cl)c1/C=N/Nc1nncc(-c2ccccc2)n1 | 0.186 | 0.641
Cc1ccccc1NC(=O)c1ccc(NC(=O)C2(C)CCCCC2)cc1 | 0.231 | 0.649
NS(=O)(=O)c1ccc(CCn2c(-c3ccc(S(=O)(=O)N4CCCC4)cc3)csc2=Nc2cccc(C(F)(F)F)c2)cc1 | 0.257 | 0.65
COC(=O)c1ccc(Cl)cc1NS(=O)(=O)c1ccc(OC)c(OC)c1 | 0.232 | 0.623
O=[N+]([O-])c1ccc(Oc2cccc3cccnc23)cc1 | 0.246 | 0.645
O=C(CSCC(=O)OCC(=O)N1CCCCC1)Nc1ccc(Br)cn1 | 0.247 | 0.621
O=C1N=C(N2CCOCC2)S/C1=C\c1ccccn1 | 0.237 | 0.61
N#Cc1c(N)oc(-c2ccco2)c1-c1ccco1 | 0.249 | 0.632
CC(=O)NC1(C(F)(F)F)C(=O)Nc2c1c(=O)[nH]c(=O)n2-c1ccc(Cl)cc1 (centres undefined) | 0.241 | 0.651
C/C(=N\NC(=O)Cc1c[nH]c2ccccc12)c1ccc(O)cc1 | 0.246 | 0.613

SMILES | plate-normalized OD600 growth (temperature: 15°C, 48 h) | plate-normalized OD600 growth (temperature: 37°C, 24 h)
CCOC(=O)Cn1c(=O)c(C#N)cn(C(C)C)c1=O | 0.266 | 0.643
CC(C)(C)c1ccc(C(=O)n2cnnc2N)cc1 | 0.226 | 0.609
O=C1NC(=O)c2cc(-c3ccc([N+](=O)[O-])cc3)ccc21 | 0.241 | 0.631
CC(=O)Nc1ccc(Sc2nc3ccccc3s2)c(Cl)c1 | 0.252 | 0.563
COc1ccc(C2SCC(=O)N2CCN2CCCCC2)cc1 (centres undefined) | 0.238 | 0.618
COc1ccc(/C(C)=N\NC2=NCCCN2)cc1 | 0.214 | 0.597
Nc1nonc1C(=O)N/N=C/c1cc(Br)cs1 | 0.24 | 0.616
CCN(CC)C1=N/C(=C/c2ccccc2)C(=O)N1c1ccc(Cl)cc1 | 0.224 | 0.61
CC(=O)Nc1cc([N+](=O)[O-])ccc1-n1cc(C)c(C(F)(F)F)n1 | 0.259 | 0.625
CCCCCCCCCCCCCCCC(=O)OC1CC(n2ccc(NC(=O)c3ccccc3)nc2=O)OC1CO (centres undefined) | 0.282 | 0.623
CCC(C(=O)Nc1ccc(C(F)(F)F)cc1)c1ccccc1 (centres undefined) | 0.277 | 0.609
CC(=O)Oc1cccc(NC(=O)CC2Sc3ccccc3NC2=O)c1 (centres undefined) | 0.252 | 0.622
COC(=O)c1ccc(Nc2nc(-c3ccc(Br)cc3)c(C)s2)cc1 | 0.244 | 0.583
Cc1nc(Nc2ccc(F)cc2)c2oc3ccccc3c2n1 | 0.245 | 0.613
Nc1nnc(CC(=O)N/N=C/c2ccccc2F)s1 | 0.255 | 0.625
COc1ccc(OC)c(NC(=O)c2ccc(N3C(=O)/C(=C/c4ccc(Cl)cc4)N=C3c3ccccc3)cc2)c1 | 0.216 | 0.634
COc1cccc(C(=O)N/N=C(/C)c2ccccc2O)c1 | 0.253 | 0.612
CSc1cccc(NC(=O)CCCC(=O)O)c1 | 0.253 | 0.612
[O-]c1n[n+](-c2cccc(F)c2)no1 | 0.251 | 0.626
Cc1cc(C)n2nc(S(=O)(=O)Nc3ccccc3[N+](=O)[O-])nc2n1 | 0.246 | 0.625

Look-ups from the entries so far.
CC(=O)Nc1cc([N+](=O)[O-])ccc1-n1cc(C)c(C(F)(F)F)n1 | plate-normalized OD600 growth (temperature: 15°C, 48 h): 0.259
COC(=O)c1ccc(Nc2nc(-c3ccc(Br)cc3)c(C)s2)cc1 | plate-normalized OD600 growth (temperature: 37°C, 24 h): 0.583
CCCCCCCCCCCCCCCC(=O)OC1CC(n2ccc(NC(=O)c3ccccc3)nc2=O)OC1CO (centres undefined) | plate-normalized OD600 growth (temperature: 15°C, 48 h): 0.282
